The text below walks through data of patent US11505523B2, “HDAC8 inhibitors for treating cancer” (City of Hope, priority 2013, dated 2022).

The structures appear in SMILES notation.

Broadly, the IC50 is the concentration that gives 50% inhibition.

One data set has as its system H1299 cells. Description: Cytotoxicity / anti-proliferative activity in H1299 lung cancer cells. The note with it: read-out: Cytotoxicity IC50 H1299; mean SD of three determinations.
The subject of another data set is Cl1-1 cells. Description: Cytotoxicity / anti-proliferative activity in CL1-1 lung cancer cells. The note with it: read-out: Cytotoxicity IC50 Cl1-1; mean SD of three determinations.
For the next data set, the system named is CL1-5 cells. As to the kind of experiment: Cytotoxicity / anti-proliferative activity in CL1-5 lung cancer cells. The note with it: read-out: Cytotoxicity IC50 Cl1-5; mean SD of three determinations.

In the case of `O=C(CCCCCCC(=O)Nc1ccccc1)NO` [SAHA, reference compound], the IC50 was determined as 4.9 ± 0.3 nM with H1299 cells, 2.9 ± 0.5 nM in the data set on Cl1-1 cells and 6.2 ± 0.6 nM in the data set with CL1-5 cells.
